{"source": "PubChem BioAssay AID504784 | Drosophila RNAi Screening Center, 2011", "test": "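Genome-wide knock-down for genes giving too much or too little stored lipid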 (primary screen)", "cells": "Drosophila Kc167 embryonic cells", "knock-down reagent": "long dsRNA against Drosophila genes, about 250 ng dsRNA per well", "timing": "4 days", "treatment": "cells fed 400 µM oleic acid bound to BSA", "measurement": "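Cells imaged and segmented; ratio of lipid droplet area to nuclear area, log-transformed, then normalised as a B-score over the screen; higher means more stored lipid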", "direction": "droplet/nuclear area B-score: higher = more stored lipid (overstorage)", "note": "The deposit covers about 17,000 reagents; this is a random part of those that have a named target and a result. 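Each column is one replicate's B-score; the combined score over replicates was not deposited, so single values may mislead.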 Names joined by + are all predicted targets of the reagent. Further read-outs or replicates are left out here."}
{"Target gene":"Fcp3C (Follicle cell protein 3C)","PubChem SID":"SID104198457","droplet/nuclear area B-score, replicate 1":-0.0134}
{"Target gene":"Vps45 (Vacuolar protein sorting 45)","PubChem SID":"SID104196190","droplet/nuclear area B-score, replicate 1":-0.0924}
{"Target gene":"Eig71Ea (Ecdysone-induced gene 71Ea)","PubChem SID":"SID104190940","droplet/nuclear area B-score, replicate 1":-0.142}
{"Target gene":"Zip42C.2 (Zinc/iron regulated transporter-related protein 42C.2)","PubChem SID":"SID104184796","droplet/nuclear area B-score, replicate 1":0.721}
{"Target gene":"Ccm3 (Cerebral cavernous malformation 3)","PubChem SID":"SID104195503","droplet/nuclear area B-score, replicate 1":0.567}
{"Target gene":"CG15425","PubChem SID":"SID104180232","droplet/nuclear area B-score, replicate 1":0.0527}
{"Target gene":"L (retired record)","PubChem SID":"SID104185758","droplet/nuclear area B-score, replicate 1":-0.925}
{"Target gene":"L (retired record)","PubChem SID":"SID104185759","droplet/nuclear area B-score, replicate 1":2.18}
{"Target gene":"cwo (clockwork orange)","PubChem SID":"SID104196864","droplet/nuclear area B-score, replicate 1":3.08}
{"Target gene":"CG16756","PubChem SID":"SID104197907","droplet/nuclear area B-score, replicate 1":-2.35}
{"Target gene":"CG42299 + CG42300","PubChem SID":"SID104199472","droplet/nuclear area B-score, replicate 1":-1.17}
{"Target gene":"CG42299 + CG42300","PubChem SID":"SID104199607","droplet/nuclear area B-score, replicate 1":-1.57}
{"Target gene":"Hug (Hugin)","PubChem SID":"SID104196761","droplet/nuclear area B-score, replicate 1":0.0184}
{"Target gene":"CR30374 (pseudo)","PubChem SID":"SID104184872","droplet/nuclear area B-score, replicate 1":0.926}
{"Target gene":"chif (chiffon)","PubChem SID":"SID104183300","droplet/nuclear area B-score, replicate 1":0.383}
{"Target gene":"Tomosyn","PubChem SID":"SID104199157","droplet/nuclear area B-score, replicate 1":-0.391}
{"Target gene":"Tomosyn","PubChem SID":"SID104199484","droplet/nuclear area B-score, replicate 1":1.39}
{"Target gene":"Tomosyn","PubChem SID":"SID104199574","droplet/nuclear area B-score, replicate 1":-0.492}
{"Target gene":"Tomosyn","PubChem SID":"SID104199634","droplet/nuclear area B-score, replicate 1":1.54}
{"Target gene":"CG17141","PubChem SID":"SID104194970","droplet/nuclear area B-score, replicate 1":-0.071}
{"Target gene":"CCHa2 (CCHamide-2)","PubChem SID":"SID104194627","droplet/nuclear area B-score, replicate 1":1.44}
{"Target gene":"Hsp60D (Heat shock protein 60D)","PubChem SID":"SID104182335","droplet/nuclear area B-score, replicate 1":0.0417}
{"Target gene":"CG31787","PubChem SID":"SID104181424","droplet/nuclear area B-score, replicate 1":-0.107}
{"Target gene":"EndoG (Endonuclease G)","PubChem SID":"SID104187084","droplet/nuclear area B-score, replicate 1":-0.428}
{"Target gene":"EndoG (Endonuclease G)","PubChem SID":"SID104202118","droplet/nuclear area B-score, replicate 1":0.838}
{"Target gene":"CG17544","PubChem SID":"SID104182416","droplet/nuclear area B-score, replicate 1":-1.15}
{"Target gene":"CG11889 + CG11891","PubChem SID":"SID104194218","droplet/nuclear area B-score, replicate 1":0.00882}
{"Target gene":"CG11889 + CG11891","PubChem SID":"SID104194219","droplet/nuclear area B-score, replicate 1":-0.0287}
